PubChem BioAssay AID1508597 | Cure First | 2020

- Purpose: 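Knock-downs altering ovarian cancer cell survival with or without PARP inhibitor rucaparib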 (primary screen)
- Cells: human ovarian carcinoma lines grown from tumours: OCI-P5x (papillary serous) and OCI-C5x (clear cell)
- Reagent: siRNA pool against human genes, 1.25 pmol siRNA per well
- Time to read-out: 72 h or 96 h, depending on the cell culture
- Conditions: rucaparib 20 µM (about IC30) or vehicle, present until read-out
- Rucaparib or vehicle: Vehicle
- Cell line: OCI-P5x (serous)
- Read-out: 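ATP luminescence measured at 72 or 96 h according to the culture, then normalised and expressed as percent viability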
- Scale: viability, normalised: higher = more viable cells remaining
- Active means: 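Active when normalised viability falls below 80 percent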
- Meaning of the calls: active = viability under 80%; inactive = viability 80% or more
Shown is a random part of the about 2,100 reagents, under one of the conditions tested. 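Calls flag viability under 80% in either arm, not effects specific to rucaparib; the reference for percent is not stated.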 A number with no mark means an inactive call. Some reagents were tested in more than one well and are listed for each. Not given: the 100% reference.

Gene	technical replicate	viability, normalised (%)
MEMO1 (mediator of cell motility 1)	1	50.6 (active)
MEMO1 (mediator of cell motility 1)	2	58.8 (active)
MEMO1 (mediator of cell motility 1)	3	54.5 (active)
PCDHB4 (protocadherin beta 4)	1	58 (active)
PCDHB4 (protocadherin beta 4)	2	60.3 (active)
PCDHB4 (protocadherin beta 4)	3	76.5 (active)
TADA1 (transcriptional adaptor 1)	1	78.3 (active)
TADA1 (transcriptional adaptor 1)	2	86.9
TADA1 (transcriptional adaptor 1)	3	76.8 (active)
ERCC2 (ERCC excision repair 2, TFIIH core complex helicase subunit)	1	121
ERCC2 (ERCC excision repair 2, TFIIH core complex helicase subunit)	1	67 (active)
ERCC2 (ERCC excision repair 2, TFIIH core complex helicase subunit)	2	108
ERCC2 (ERCC excision repair 2, TFIIH core complex helicase subunit)	2	65.8 (active)
ERCC2 (ERCC excision repair 2, TFIIH core complex helicase subunit)	3	68.9 (active)
ERCC2 (ERCC excision repair 2, TFIIH core complex helicase subunit)	3	113

Entries above whose gene name begins with E or e (6):
Gene	technical replicate	viability, normalised (%)
ERCC2 (ERCC excision repair 2, TFIIH core complex helicase subunit)	1	121
ERCC2 (ERCC excision repair 2, TFIIH core complex helicase subunit)	1	67 (active)
ERCC2 (ERCC excision repair 2, TFIIH core complex helicase subunit)	2	108
ERCC2 (ERCC excision repair 2, TFIIH core complex helicase subunit)	2	65.8 (active)
ERCC2 (ERCC excision repair 2, TFIIH core complex helicase subunit)	3	68.9 (active)
ERCC2 (ERCC excision repair 2, TFIIH core complex helicase subunit)	3	113

Next records follow:
Gene	technical replicate	viability, normalised (%)
TF (transferrin)	1	112
TF (transferrin)	2	127
TF (transferrin)	3	129
DGKG (diacylglycerol kinase gamma)	1	80.7
DGKG (diacylglycerol kinase gamma)	2	76.7 (active)
DGKG (diacylglycerol kinase gamma)	3	76.8 (active)
TNKS2 (tankyrase 2)	1	44.4 (active)
TNKS2 (tankyrase 2)	1	65.7 (active)
TNKS2 (tankyrase 2)	2	67.9 (active)
TNKS2 (tankyrase 2)	2	75.9 (active)
TNKS2 (tankyrase 2)	3	75 (active)
TNKS2 (tankyrase 2)	3	99.8
PLK3 (polo like kinase 3)	1	91.7
PLK3 (polo like kinase 3)	2	97
PLK3 (polo like kinase 3)	3	104
LTK (leukocyte receptor tyrosine kinase)	1	63.2 (active)
LTK (leukocyte receptor tyrosine kinase)	2	54.5 (active)
LTK (leukocyte receptor tyrosine kinase)	3	62.8 (active)
PTK2 (protein tyrosine kinase 2)	1	128
PTK2 (protein tyrosine kinase 2)	2	137
PTK2 (protein tyrosine kinase 2)	3	119
CHMP4C (charged multivesicular body protein 4C)	1	59.1 (active)
CHMP4C (charged multivesicular body protein 4C)	2	69.6 (active)
CHMP4C (charged multivesicular body protein 4C)	3	64.2 (active)
